From article doi:10.1101/2024.09.01.610734

Legend:
Test in all cases: affinity purification with mass spectrometry
[1] = molecular target: T1, mimivirus R505, 3xHA tagged (Acanthamoeba polyphaga mimivirus)
T1 sequence: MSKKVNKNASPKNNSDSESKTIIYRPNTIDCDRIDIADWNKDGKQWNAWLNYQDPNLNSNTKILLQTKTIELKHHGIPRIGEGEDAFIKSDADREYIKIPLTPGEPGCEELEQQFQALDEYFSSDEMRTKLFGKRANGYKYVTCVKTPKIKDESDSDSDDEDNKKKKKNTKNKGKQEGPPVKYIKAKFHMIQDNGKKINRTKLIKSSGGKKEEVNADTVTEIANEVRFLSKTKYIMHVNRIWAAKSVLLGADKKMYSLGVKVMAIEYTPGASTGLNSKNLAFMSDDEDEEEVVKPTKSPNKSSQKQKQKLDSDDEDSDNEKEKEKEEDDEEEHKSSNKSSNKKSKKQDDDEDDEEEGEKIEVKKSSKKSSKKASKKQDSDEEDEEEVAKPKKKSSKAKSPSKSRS

[2] = molecular target: T2, mimivirus R336/R337, 3xHA tagged (Acanthamoeba polyphaga mimivirus) (UniProt E3VZZ4)
T2 sequence: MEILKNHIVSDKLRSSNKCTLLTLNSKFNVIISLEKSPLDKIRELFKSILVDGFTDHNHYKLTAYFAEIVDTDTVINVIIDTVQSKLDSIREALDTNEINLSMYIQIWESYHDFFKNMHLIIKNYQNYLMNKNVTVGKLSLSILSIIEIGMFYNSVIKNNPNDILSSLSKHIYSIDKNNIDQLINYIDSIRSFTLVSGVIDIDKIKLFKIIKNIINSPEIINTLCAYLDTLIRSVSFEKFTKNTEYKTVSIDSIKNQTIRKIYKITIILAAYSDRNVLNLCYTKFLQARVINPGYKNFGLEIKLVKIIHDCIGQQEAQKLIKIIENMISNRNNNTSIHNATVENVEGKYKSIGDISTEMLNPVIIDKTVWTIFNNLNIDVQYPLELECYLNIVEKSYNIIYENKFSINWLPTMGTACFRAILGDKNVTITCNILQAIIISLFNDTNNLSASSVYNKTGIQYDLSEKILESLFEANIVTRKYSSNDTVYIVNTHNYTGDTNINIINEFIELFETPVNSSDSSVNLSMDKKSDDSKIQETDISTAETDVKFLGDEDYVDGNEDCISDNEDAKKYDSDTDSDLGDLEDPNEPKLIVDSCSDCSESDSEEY

[3] = molecular target: T3, mimivirus R562, 3xHA tagged (Acanthamoeba polyphaga mimivirus)
T3 sequence: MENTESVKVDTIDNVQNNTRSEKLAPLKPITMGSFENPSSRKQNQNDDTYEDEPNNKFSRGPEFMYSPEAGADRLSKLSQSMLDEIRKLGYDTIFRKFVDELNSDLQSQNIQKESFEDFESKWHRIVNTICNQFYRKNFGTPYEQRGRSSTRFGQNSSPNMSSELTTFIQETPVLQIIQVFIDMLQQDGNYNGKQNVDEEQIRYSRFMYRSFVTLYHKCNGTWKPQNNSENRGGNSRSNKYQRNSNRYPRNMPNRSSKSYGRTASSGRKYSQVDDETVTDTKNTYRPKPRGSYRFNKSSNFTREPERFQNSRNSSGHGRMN

Measured: binding

B1: Outer Layer Scaffold 1 (OLS1), mimivirus R561, virus-encoded untagged protein (protein, UniProt A0A0G2Y0Y5 1-256)
chain: MARGKKTQETGSSKRRSKVQEEEEHVEGSEEEVEEPEQKSSKRGSRKTTNSTSNKKKSVKKVESDDDDEDDLSELDVVVEDDNPVETSDNDEVATTPQQEKSSRSRKNRGDHESHDDNSDNEEQGDRGNRREHKPRPKVDPNTPIGKLATDQILQFLQERGEESFNPQLKHGARQLLNQLLGKYNGQRYGSKRGGPPRGSFGQRGGFNSRGRGMPPRMRQGDTRDTRDTRDTRLRFNTTQSNRRELNDQSDDLYND
binds: all assays above

B2: Inner Layer Scaffold 1 (ILS1), mimivirus R252, virus-encoded untagged protein (protein, UniProt E3VZE1 1-268)
chain: MSTRSNKKSTKTEKVAKATKPVENVEVSDNEVQEQAVKTKASGKKVTAKSTKQSGGKNAKSGSKSAKSGSKSAKSGSKTSKTQSGGKGDESRDRYFKLIDAKTGRSFGRYTGGTPKQAASKGFTKMIHKIKAEGGALPKNGTMKIYLRESTRGSPRKVYAYEATRKQLTEPQKIEIEGSDGKKKVITYRYRNVIHKVSAPLPNQLGGLKTSRSNKKSGETKKSGSRSSGSKRSAKPTKSAKNAKSTGNKKVSTKSAGAKKAPAAKASR
binds: all assays above

No constants are given. Whether binding was seen depends on the method and setting. In cells and extracts the contact can be indirect. A yes stands for co-enrichment or nearness to the bait. Other partners may have been found. Where a sequence is shown, tags or fusion partners need not be part of it.
